Screen size: about 580,000 compounds; about 6,100 (1.1%) were called active. Inconclusive means that the source gave no clear call. Such entries were picked first, then a sample of the others. Calls follow the shape of the dose curve; as a rule, active = well fitted inhibition curve with a large enough effect; inconclusive = small, poorly fitted or top-dose-only effect, or another doubt; inactive = no such curve, though single readings can be large or run the other way. Where the call is inconclusive, the potency comes from a doubtful curve fit.
Each molecule was assayed against Polyunsaturated fatty acid lipoxygenase ALOX12 (Homo sapiens) (UniProt P18054) (assay: Primary qHTS assay for inhibitors of human arachidonate 12S-lipoxygenase (ALOX12): Round 2). Settings: purified 12hLO, xylenol orange hydroperoxide absorbance; activity change, negative = inhibition: at 108 µM (top of the series) unless noted.
Method in brief: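 Hydroperoxide product was detected by ferrous iron/xylenol orange as the 573 to 405 nm absorbance ratio. Arachidonic acid at 40 uM (final) was turned over for 30 min at room temperature by 150 nM human 12hLO, pH 7.0 Hepes buffer, after 15 min compound preincubation.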
% is scaled to controls: 0 for no effect and ±100 for the full control effect; potency is read from the fitted curve at half-maximal effect.

The chains behind the UniProt entries cited, without tags or fusion partners. Where a name states a change or a piece, a line headed by the entry shows the natural chain unless it says otherwise.
UniProt P18054: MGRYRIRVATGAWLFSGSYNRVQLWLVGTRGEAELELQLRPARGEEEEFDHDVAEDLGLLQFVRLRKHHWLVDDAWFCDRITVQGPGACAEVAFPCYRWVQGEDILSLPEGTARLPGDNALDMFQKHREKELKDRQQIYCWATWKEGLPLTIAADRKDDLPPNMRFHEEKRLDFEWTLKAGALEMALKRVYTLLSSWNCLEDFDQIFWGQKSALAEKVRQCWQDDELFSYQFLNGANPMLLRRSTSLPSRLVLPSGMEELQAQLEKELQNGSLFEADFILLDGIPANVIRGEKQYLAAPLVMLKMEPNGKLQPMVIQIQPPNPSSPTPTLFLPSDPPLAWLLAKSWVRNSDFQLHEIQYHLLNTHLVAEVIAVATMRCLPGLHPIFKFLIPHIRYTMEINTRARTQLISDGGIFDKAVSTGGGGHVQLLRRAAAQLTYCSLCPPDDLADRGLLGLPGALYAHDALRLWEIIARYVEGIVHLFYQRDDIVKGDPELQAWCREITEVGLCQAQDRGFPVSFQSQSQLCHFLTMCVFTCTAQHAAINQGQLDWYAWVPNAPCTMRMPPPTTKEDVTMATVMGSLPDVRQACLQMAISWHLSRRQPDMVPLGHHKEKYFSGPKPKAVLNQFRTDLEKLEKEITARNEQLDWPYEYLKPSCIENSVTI

Structure (SMILES)	Potency	activity change, negative = inhibition
O=C(C(=Cc1ccc(O)cc1)c1ccccc1)c1ccccc1	inconclusive: 50.1 µM [inhibitor, partial curve, poor fit]	
O=C1c2ccccc2C(c2nnnn2-c2ccc3c(c2)OCCO3)N1Cc1ccccc1 (stereo not given)	inconclusive: 79.4 µM [inhibitor, partial curve, poor fit]	
Cc1cc(C)c2ccc3ccccc3c2n1	inconclusive: 3.16 µM [inhibitor, full curve]	
c1ccc(Oc2nccn3c(-c4ccc(CNCc5ccn[nH]5)cc4)cnc23)cc1		inactive: 83.4% [at 176 µM]
O=C(N1CCc2[nH]c3ccccc3c2C1)C(F)(F)F	inconclusive: 39.8 µM [inhibitor, partial curve, poor fit]	
COC(=O)c1nn(-c2ccc(Oc3ccccc3)cc2)c(=O)cc1O	inconclusive: 44.7 µM [inhibitor, partial curve]	
CN(C)CCCNCc1ccco1	inconclusive: 100 µM [inhibitor, single point]	
O=C(COC(=O)c1ccc([N+](=O)[O-])o1)NCc1ccc2c(c1)OCO2	inconclusive: 35.5 µM [inhibitor, partial curve, poor fit]	
CC1(C)OC(=O)C(=CSc2ccc(C(C)(C)C)cc2)C(=O)O1	inconclusive: 56.2 µM [inhibitor, partial curve, poor fit]	
CCN(CC(=O)NCc1ccccn1)S(=O)(=O)c1ccc(Cl)cc1		inactive: 0%
O=C(NCCCn1ccnc1)c1ccccc1NS(=O)(=O)c1ccc(F)c(F)c1		inactive: 19.7%
CCOC(=O)C1C(=O)CC(=O)C(C(=O)OCC)C1c1ccccc1 (stereo not given)	inconclusive: 44.7 µM [inhibitor, partial curve, poor fit]	
Fc1ccc(Nc2nc(N/N=C/c3ccco3)nc(N3CCCCC3)n2)cc1		inactive: -10.6%
COc1cccc(C2/C(=C(\O)c3ccc4c(c3)OCCO4)C(=O)C(=O)N2CCCn2ccnc2)c1 (stereo not given)		inactive: -0.2%
COc1cccc(-c2cc(C(=O)O)c3cc(C)ccc3n2)c1	inconclusive: 44.7 µM [inhibitor, partial curve, poor fit]	
CC(C)CNC(=O)[C@H]1CCC[C@H]1NC(=O)c1ccncc1		inactive: 56.7%
CCCCC(=O)Nc1nnc(CCOC)s1		inactive: -0.444%
COc1cc2c3nnc(-c4ccccc4)c-3cn(Cc3ccccc3F)c2cc1OC	inconclusive: 56.2 µM [inhibitor, partial curve, poor fit]	
COc1cc(NC(=O)Cn2c(=O)n(CC(=O)NCCc3ccc(OC)c(OC)c3)c(=O)c3sccc32)cc(OC)c1	inconclusive: 100 µM [inhibitor, partial curve, poor fit]	
CC(=O)c1cccc(NC(=O)c2sc(-n3nc(C)c(CCC(C)C)c3C)nc2C)c1	inconclusive: 200 µM [inhibitor, partial curve, poor fit]	
Cc1cc(C(=O)CN2c3cccc4cccc(c34)S2(=O)=O)c(C)n1C	inconclusive: 25.1 µM [inhibitor, partial curve, poor fit]	
CCSc1ccccc1C(=O)Nc1cc(OC)c(OC)c(OC)c1	inconclusive: 79.4 µM [inhibitor, single point]	

Structure (SMILES)	Potency	activity change, negative = inhibition
O=C(CC1C(=O)Nc2ccccc2N1CC(=O)N1CCCC1)Nc1ccc(Br)cc1 (stereo not given)	inconclusive: 126 µM [inhibitor, single point]	
CNS(=O)(=O)c1ccc(NC(=O)CCc2c(C)nc3c4ccccc4nn3c2C)cc1	inconclusive: 44.7 µM [inhibitor, partial curve, poor fit]	
CSc1nc(Cl)cc(Sc2ccc(C)cc2)n1	inconclusive: 63.1 µM [inhibitor, single point]	
O=C(NC1CCCCC1)c1nn2c(C(F)(F)F)cc(-c3ccco3)nc2c1Br	inconclusive: 7.08 µM [inhibitor, full curve, poor fit]	
Cc1noc(C)c1CSCC(=O)N1CCN(c2ccc([N+](=O)[O-])cc2)CC1	inconclusive: 100 µM [inhibitor, partial curve, poor fit]	
O=C(c1cc(F)ccc1Cl)N1CCC2(CC1)NC(=O)N(Cc1ccccc1)C2=O	inconclusive: 20 µM [inhibitor, partial curve]	
COc1ccc(CCNC(=O)CSc2nc(-c3ccco3)cc(C(F)(F)F)n2)cc1	inconclusive: 63.1 µM [inhibitor, partial curve, poor fit]	
CC(=O)Nc1ccc(S(=O)(=O)NCC2CCC(C(=O)NCc3ccccc3Cl)CC2)cc1 (stereo not given)	inconclusive: 15.8 µM [inhibitor, full curve, poor fit]	
CCOc1ccc(Nc2nc3ccccc3n2C)cc1		inactive: 485%
COc1cc(OC)cc(-c2oc3cccnc3c2C#CCCO)c1	inconclusive: 70.8 µM [inhibitor, partial curve, poor fit]	
CN(C)C(=O)CSc1nc2cc(S(=O)(=O)N3CCOCC3)ccc2o1	inconclusive: 7.08 µM [inhibitor, full curve, poor fit]	
CC(=O)NCCNC(=O)Cn1c(C)c(Br)c2ccccc21		inactive: -1.5%
COc1ccc(N2CCN(C(=O)c3ccc(C(C)(C)C)cc3)CC2)cc1	inconclusive: 22.4 µM [inhibitor, partial curve, poor fit]	
COC(=O)[C@]1(C)N[C@H](CN(C)C(=O)C2CCCCC2)[C@@H]2C(=O)N(Cc3ccccc3)C(=O)[C@@H]21	inconclusive: 44.7 µM [inhibitor, partial curve, poor fit]	
Cc1nc2ncccn2c1-c1csc(Nc2ccc(N(C)C)cc2)n1	inconclusive: 100 µM [inhibitor, partial curve, poor fit]	
CCCCNc1ncnc2c1cnn2-c1ccccc1	inconclusive: 44.7 µM [inhibitor, partial curve, poor fit]	
COc1cc(/C=C2/C(=O)N(c3ccc(C)c(C)c3)N=C2C)cc([N+](=O)[O-])c1O	inconclusive: 44.7 µM [inhibitor, partial curve, poor fit]	
O=C(Nc1ccc(N2CCOCC2)cc1Cl)C1CCN(C(=O)OCc2ccccc2)CC1	inconclusive: 112 µM [inhibitor, single point]	
C1=CC2c3ccccc3NC(c3ccncc3)C2C1 (stereo not given)	inconclusive: 2.51 µM [inhibitor, full curve, poor fit]	
Cc1nc2cccnc2n1CC1CCCN(S(=O)(=O)Cc2ccccc2Cl)C1 (stereo not given)	inconclusive: 14.1 µM [inhibitor, full curve, poor fit]	
CC(/C=N/n1c(-c2n[nH]c3c2CCC3)n[nH]c1=S)=C\c1ccco1		inactive: -12%
C[C@@H](CN1C(=O)C(=O)NC[C@@H]1Cc1ccc(O)cc1)NC(=O)Cc1ccccc1		inactive: -9.96%

Structure (SMILES)	Potency	activity change, negative = inhibition
Cc1ccc(S(=O)(=O)N2CCN(CCNC(=O)c3ccc(S(=O)(=O)N(C)C)cc3)CC2)cc1	inconclusive: 35.5 µM [inhibitor, partial curve]	
COc1cccc(N=Nc2ccc3cccnc3c2O)c1	inconclusive: 7.08 µM [inhibitor, partial curve, poor fit]	
CN(C)CCCN(C(=O)c1cc2ccccc2oc1=O)c1nc2ccc(F)cc2s1	inconclusive: 11.2 µM [inhibitor, partial curve, poor fit]	
CC1CCc2nc(NC(=O)c3ccc(S(=O)(=O)N4CCCc5ccccc54)cc3)sc2C1 (stereo not given)		inactive: -28.5%
Cc1ccc2sc(-c3ccc(NC(=O)/C=C\C(=O)O)cc3)nc2c1	inconclusive: 44.7 µM [inhibitor, partial curve, poor fit]	
Cc1cc2ncc(C(=O)NCc3cccc4ccccc34)cn2n1		inactive: -11.7% [at 176 µM]
Cc1cc(N2CCOCC2)nc(SCC(=O)c2ccc(Cl)cc2)n1	inconclusive: 50.1 µM [inhibitor, partial curve, poor fit]	
COc1cc2c(cc1OC)C(CSc1ccccc1C(=O)O)=NC(C)(C)C2		inactive: -21.6%
COc1ccc(NC(=O)NC(C)c2ccc3c(c2)OCO3)cc1OC (stereo not given)		inactive: 1.75%
O=C(O)c1cccc(Nc2ccc3nonc3c2[N+](=O)[O-])c1	inconclusive: 141 µM [inhibitor, single point]	
C=CCC1(C(=O)O)CCCN(C(=O)c2cn(CCN)nn2)C1 (stereo not given)	inconclusive: 3.55 µM [inhibitor, full curve, poor fit]	
CCc1ccc(OCC(=O)Nc2ccc3[nH]ncc3c2)cc1	inconclusive: 1.58 µM [inhibitor, partial curve, poor fit]	
CNS(=O)(=O)Cc1ccccc1CNC(=O)c1cc(F)cc(F)c1		inactive: -28.1%
COc1ccc(Nc2nc(-c3cccc(OC)c3O)nc3ccccc23)cc1	inconclusive: 44.7 µM [inhibitor, partial curve, poor fit]	
CCOc1ccccc1CN1CCNC(=O)C1CC(=O)NC1CCCCCC1 (stereo not given)		inactive: -8.31%
Cc1ccsc1C(=O)N1CCC(n2cc(-c3nc(-c4ccccc4)no3)nn2)C1 (stereo not given)		inactive: 7.81%
CCOC(=O)c1ccc(NC(=S)NN)cc1	inconclusive: 50.1 µM [inhibitor, partial curve, poor fit]	
CCCCSc1c(C)c2cc3c(cc2[nH]c1=O)OCO3		inactive: -16.1%
O=C(O)CCC(=O)Nc1ccc2c(C(C(=O)O)N3CCN(c4cccc(Cl)c4)CC3)c[nH]c2c1 (stereo not given)	inconclusive: 44.7 µM [inhibitor, partial curve, poor fit]	
CCCn1nnc(NC(=O)COc2ccccc2Cl)n1	inconclusive: 15.8 µM [inhibitor, partial curve, poor fit]	
COC(=O)C1=C(C)N(CCc2ccc(OC)cc2)C(=O)C1	inconclusive: 56.2 µM [inhibitor, partial curve, poor fit]	

Complete entries as entered above:
`COc1cc(/C=C2/C(=O)N(c3ccc(C)c(C)c3)N=C2C)cc([N+](=O)[O-])c1O` in the list: Potency: inconclusive: 44.7 µM [inhibitor, partial curve, poor fit]
`Cc1noc(C)c1CSCC(=O)N1CCN(c2ccc([N+](=O)[O-])cc2)CC1` in the list: Potency: inconclusive: 100 µM [inhibitor, partial curve, poor fit]

From PubChem BioAssay AID1671190 (National Center for Advancing Translational Sciences (NCATS), 2021)
